Test [1] has as its target Ku70/Ku80 heterodimer, endogenous in mouse embryonic fibroblasts (mouse (endogenous in MEF)) (UniProt P23475+P27641). In words: co-IP; Ku70 co-immunoprecipitation from control (p53-/- Lrf f/f ctr) and LRF conditional knockout (p53-/- Lrf f/f cre) MEF; less DNA-PKcs found in LRF-depleted cells.
In test [2] the target is human LRF tagged with Flag and haemagglutinin (HA) epitopes (human) (UniProt O95365).
Test [3] addresses FLAG-tagged LRF (UniProt O95365). Description: pull-down; in vitro binding: FLAG-tagged LRF held on Flag antibody affinity resin, washed with 500 mM NaCl; purified DNA-PK components added in the presence of EtBr; western blotting; both purified.
Test [4] has the same target. In words: pull-down; in vitro binding: FLAG-tagged LRF held on Flag antibody affinity resin, washed with 500 mM NaCl; purified DNA-PK components added in the absence of EtBr; western blotting; both purified.
The target of test [5] is endogenous LRF (UniProt O95365). In words: co-IP; endogenous, reciprocal; 1 mg cell lysate (50 mM Tris pH 8.0, 150 mM NaCl, 0.5% NP-40), antibody 3-4 h at 4 °C, protein A beads; washed with 20 mM Tris pH 8.0, 100 mM NaCl, 1 mM EDTA, 0.5% NP-40; no ethidium bromide.
Test [6] has the same target. In words: co-IP; endogenous co-immunoprecipitation in the presence of ethidium bromide (50 μg ml^-1), which disrupts DNA-dependent interactions.

Sequences of proteins named here, by UniProt entry; tags and fusion partners are left off. A change or cut given only in a name is not applied to a line headed by its entry.
UniProt P23475: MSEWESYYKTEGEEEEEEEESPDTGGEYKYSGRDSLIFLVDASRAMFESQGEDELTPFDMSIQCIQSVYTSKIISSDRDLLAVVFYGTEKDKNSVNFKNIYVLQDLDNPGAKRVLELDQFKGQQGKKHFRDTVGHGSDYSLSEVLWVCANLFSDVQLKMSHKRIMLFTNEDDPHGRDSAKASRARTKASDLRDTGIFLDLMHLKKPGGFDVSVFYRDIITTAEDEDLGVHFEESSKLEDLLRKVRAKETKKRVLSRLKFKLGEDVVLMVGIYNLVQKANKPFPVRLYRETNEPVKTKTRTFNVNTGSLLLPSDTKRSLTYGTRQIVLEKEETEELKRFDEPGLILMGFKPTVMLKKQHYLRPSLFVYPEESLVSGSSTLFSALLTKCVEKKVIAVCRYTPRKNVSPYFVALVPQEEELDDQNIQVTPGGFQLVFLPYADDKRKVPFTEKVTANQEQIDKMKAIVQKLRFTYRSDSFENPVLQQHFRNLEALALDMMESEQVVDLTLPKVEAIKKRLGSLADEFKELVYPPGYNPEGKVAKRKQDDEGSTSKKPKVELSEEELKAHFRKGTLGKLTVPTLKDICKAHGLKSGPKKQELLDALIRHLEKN
UniProt P27641: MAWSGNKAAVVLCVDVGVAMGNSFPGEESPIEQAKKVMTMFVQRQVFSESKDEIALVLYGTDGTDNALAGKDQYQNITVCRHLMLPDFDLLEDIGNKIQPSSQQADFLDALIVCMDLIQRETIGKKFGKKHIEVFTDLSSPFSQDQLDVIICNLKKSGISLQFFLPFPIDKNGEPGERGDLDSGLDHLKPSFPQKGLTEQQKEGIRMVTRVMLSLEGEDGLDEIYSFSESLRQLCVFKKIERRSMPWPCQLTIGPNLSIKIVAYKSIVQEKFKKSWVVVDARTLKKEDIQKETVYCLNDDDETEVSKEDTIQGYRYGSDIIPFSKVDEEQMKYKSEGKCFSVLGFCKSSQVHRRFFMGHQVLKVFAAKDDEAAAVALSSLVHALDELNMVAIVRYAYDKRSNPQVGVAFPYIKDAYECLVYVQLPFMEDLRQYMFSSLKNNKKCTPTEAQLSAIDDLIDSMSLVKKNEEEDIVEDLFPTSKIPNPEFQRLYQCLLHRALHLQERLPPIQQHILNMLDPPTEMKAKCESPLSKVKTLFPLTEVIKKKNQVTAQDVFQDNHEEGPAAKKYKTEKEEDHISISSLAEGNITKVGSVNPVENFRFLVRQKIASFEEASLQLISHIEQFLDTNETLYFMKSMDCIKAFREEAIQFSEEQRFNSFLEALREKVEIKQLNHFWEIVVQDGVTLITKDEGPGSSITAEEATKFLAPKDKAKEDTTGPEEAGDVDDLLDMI
UniProt P78527: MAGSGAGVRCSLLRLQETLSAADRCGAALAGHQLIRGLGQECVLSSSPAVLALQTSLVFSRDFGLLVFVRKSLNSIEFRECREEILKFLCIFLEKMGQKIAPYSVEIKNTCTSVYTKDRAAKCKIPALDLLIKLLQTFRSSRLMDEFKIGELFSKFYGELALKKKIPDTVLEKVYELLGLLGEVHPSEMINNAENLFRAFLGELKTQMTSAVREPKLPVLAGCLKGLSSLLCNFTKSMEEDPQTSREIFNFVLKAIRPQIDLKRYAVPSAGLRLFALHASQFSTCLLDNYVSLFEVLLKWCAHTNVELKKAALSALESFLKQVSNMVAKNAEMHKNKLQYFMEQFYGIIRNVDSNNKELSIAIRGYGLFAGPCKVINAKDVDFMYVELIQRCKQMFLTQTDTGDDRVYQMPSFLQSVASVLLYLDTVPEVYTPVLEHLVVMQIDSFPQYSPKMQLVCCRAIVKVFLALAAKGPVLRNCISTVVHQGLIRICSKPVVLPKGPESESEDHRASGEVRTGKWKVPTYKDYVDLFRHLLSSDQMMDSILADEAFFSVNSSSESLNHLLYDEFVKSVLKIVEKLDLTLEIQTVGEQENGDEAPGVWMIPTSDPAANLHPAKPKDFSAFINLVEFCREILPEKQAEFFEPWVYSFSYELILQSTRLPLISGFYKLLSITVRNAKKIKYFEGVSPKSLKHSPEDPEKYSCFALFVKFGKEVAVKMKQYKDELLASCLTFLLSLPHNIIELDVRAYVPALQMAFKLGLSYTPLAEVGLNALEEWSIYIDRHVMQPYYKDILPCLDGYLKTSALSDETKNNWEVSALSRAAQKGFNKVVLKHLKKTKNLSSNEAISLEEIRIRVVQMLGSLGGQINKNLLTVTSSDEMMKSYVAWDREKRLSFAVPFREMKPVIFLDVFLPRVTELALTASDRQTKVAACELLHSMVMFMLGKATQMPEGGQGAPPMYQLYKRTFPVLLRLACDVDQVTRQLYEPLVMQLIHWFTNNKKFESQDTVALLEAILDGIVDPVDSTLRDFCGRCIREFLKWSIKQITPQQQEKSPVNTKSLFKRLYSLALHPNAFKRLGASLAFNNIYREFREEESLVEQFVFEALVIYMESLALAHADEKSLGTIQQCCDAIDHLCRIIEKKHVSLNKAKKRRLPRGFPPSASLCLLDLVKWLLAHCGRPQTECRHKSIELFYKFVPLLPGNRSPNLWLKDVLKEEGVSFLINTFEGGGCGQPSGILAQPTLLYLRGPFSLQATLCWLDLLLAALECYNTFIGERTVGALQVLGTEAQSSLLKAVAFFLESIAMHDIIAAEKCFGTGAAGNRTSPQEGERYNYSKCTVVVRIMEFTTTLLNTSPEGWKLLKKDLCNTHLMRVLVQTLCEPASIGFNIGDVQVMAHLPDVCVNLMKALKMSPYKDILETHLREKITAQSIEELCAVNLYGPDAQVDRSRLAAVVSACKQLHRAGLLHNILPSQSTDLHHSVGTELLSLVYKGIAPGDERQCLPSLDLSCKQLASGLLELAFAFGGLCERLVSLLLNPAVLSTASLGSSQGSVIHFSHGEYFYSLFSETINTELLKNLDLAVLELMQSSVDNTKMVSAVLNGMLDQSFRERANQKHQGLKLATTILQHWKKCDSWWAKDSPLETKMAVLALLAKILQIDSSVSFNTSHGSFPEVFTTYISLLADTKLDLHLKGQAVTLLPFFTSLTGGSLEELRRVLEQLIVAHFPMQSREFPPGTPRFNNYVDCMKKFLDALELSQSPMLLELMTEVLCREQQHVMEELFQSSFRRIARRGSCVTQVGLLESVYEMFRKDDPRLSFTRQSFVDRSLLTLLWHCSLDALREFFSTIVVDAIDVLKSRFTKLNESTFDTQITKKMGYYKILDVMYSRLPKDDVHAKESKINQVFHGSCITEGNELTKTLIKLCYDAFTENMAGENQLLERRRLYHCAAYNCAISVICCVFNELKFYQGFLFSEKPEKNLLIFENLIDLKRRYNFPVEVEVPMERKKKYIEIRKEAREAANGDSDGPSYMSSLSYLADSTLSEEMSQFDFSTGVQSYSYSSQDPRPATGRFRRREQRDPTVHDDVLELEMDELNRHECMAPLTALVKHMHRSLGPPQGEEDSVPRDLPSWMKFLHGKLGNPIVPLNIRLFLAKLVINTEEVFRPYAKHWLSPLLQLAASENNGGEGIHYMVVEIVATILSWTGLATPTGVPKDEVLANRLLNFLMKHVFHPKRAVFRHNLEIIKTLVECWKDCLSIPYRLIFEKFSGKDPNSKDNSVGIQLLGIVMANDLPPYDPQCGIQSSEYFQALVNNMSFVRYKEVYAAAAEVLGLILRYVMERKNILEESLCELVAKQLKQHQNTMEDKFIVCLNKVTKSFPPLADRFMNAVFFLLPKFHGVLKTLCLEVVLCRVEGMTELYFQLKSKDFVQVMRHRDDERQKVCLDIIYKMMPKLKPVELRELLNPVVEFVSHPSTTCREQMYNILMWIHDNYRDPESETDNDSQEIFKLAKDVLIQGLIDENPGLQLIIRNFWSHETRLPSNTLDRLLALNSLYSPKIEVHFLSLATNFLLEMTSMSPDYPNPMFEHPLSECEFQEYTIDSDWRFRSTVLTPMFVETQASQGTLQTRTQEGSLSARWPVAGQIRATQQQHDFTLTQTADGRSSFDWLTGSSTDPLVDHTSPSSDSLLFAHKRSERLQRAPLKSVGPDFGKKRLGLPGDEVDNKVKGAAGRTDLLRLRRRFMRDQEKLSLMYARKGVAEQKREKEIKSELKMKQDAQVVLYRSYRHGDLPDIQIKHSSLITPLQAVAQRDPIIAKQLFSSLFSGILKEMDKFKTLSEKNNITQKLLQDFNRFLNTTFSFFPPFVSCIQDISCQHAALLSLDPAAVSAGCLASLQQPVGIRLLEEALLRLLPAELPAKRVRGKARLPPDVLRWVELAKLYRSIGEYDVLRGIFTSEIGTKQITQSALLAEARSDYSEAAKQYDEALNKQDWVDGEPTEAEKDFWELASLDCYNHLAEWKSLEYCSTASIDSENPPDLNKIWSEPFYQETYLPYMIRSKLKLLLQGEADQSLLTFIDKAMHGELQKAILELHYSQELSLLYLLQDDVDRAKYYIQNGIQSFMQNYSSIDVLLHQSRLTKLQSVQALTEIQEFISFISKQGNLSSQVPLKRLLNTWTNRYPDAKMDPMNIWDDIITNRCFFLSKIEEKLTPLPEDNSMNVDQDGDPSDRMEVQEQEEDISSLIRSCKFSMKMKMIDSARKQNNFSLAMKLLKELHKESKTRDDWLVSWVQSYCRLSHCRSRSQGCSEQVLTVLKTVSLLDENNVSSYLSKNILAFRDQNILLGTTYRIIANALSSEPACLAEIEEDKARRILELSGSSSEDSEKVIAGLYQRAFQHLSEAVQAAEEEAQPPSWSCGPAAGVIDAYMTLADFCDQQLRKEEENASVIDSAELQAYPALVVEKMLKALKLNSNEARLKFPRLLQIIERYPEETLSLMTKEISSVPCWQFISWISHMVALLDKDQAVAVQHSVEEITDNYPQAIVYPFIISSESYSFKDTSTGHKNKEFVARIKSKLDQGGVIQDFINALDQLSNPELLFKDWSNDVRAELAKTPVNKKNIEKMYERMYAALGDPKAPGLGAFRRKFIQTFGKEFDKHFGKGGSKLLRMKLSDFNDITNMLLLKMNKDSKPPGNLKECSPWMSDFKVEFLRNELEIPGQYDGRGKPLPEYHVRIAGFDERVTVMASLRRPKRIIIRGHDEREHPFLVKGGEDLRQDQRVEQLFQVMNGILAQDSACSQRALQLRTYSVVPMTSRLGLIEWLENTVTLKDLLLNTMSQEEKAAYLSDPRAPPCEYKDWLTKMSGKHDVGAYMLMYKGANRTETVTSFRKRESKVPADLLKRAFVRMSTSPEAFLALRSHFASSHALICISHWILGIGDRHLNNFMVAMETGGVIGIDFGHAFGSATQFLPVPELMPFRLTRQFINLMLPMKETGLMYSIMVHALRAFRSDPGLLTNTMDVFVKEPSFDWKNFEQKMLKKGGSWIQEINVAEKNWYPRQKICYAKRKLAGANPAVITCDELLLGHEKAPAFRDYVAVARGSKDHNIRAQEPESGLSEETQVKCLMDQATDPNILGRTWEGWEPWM

Results are given in words; binding and its absence hold for the method and conditions named. For part of these data: Binding seen in cells or lysates may run through a third protein. Some binding calls cover weakened binding; strength is not graded here.

On to “DNA-PKcs, endogenous in mouse embryonic fibroblasts (from UniProt P97313 1-4128)”, for which the binding entry in test [1] is “binds”.

As to “DNA-PKcs (catalytic subunit of DNA-dependent protein kinase), endogenous in HeLa (from UniProt P78527 1-4128)”, in test [2], the binding entry is given as “binds”.

On to “purified DNA-PKcs (component of the purified DNA-PK complex, Promega) (from UniProt P78527 1-4128)”, for which the binding entry in test [3] and in test [4] was “binds” in each case.

Turning to “endogenous DNA-PKcs (from UniProt P78527 1-4128)”, the binding result in test [5] and in test [6] was “binds” in each case.
